{"sequences": {"note": "Chains of the proteins cited; added tags and fusions are not shown.", "UniProt Q0JBA9, entry or part of it": "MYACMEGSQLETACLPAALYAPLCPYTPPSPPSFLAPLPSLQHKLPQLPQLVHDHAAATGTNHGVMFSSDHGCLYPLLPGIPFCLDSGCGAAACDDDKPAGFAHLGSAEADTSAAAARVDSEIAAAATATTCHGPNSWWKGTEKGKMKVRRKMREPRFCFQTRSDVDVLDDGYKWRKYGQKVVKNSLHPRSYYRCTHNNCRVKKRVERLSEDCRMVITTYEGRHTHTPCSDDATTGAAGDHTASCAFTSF"}, "source": "paper PMC7819943", "about": "“Rice protein-binding microarrays: a tool to detect cis-acting elements near promoter regions in rice”", "note": "The other results are listed elsewhere or left out.", "data": [{"target": "OsWRKY34 (Oryza sativa, UniProt Q0JBA9 1-250)", "test": "protein-binding microarray (RPBM); PBS, 2% BSA, 51.3 ng/ul salmon testes DNA, 50 uM zinc acetate, 200 nM TF, 25 C, 1 h; high values mean tight binding", "conditions": "protein: recombinant; tags: N-terminal polyhistidine and DsRed monomer fusion (pET32a); label: CyDye5-dUTP incorporated in the synthesized complementary strand; 3' TTTTT single-stranded linker to array surface; dsDNA, one strand shown", "in_short": "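Using Ni–NTA, transcription factors fused N-terminally to polyhistidine and DsRed were purified after expression in E. coli BL21-CodonPlus. These were incubated at 200 nM with a blocked, double-stranded custom Agilent array for 1 h at 25 °C in a buffer containing 50 µM zinc acetate, and the array was washed. The binding signal is per-feature fluorescence intensity (arbitrary units) on an Axon 4000B scanner.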", "values": [{"sequence": "GCTGTCCATGCTGACCCATGTTGCTCTGTACAAGCTTTATCGGAGTCACCTAGTGCAG", "binding signal": "8790 fluorescence intensity (a.u.)"}, {"sequence": "CTACTCAATGTAGTCATCCCGTATTAACCTTTTTCTGCAACGGAGTCACCTAGTGCAG", "binding signal": "8300 fluorescence intensity (a.u.)"}, {"sequence": "CGGCTTCCTGACCTTGCCGCCAGCCCGCCACAGTTGCCATCGGAGTCACCTAGTGCAG", "binding signal": "9980 fluorescence intensity (a.u.)"}, {"sequence": "TTACTGATGTCATCGTTCCAGGCCGTTGGTCCCGCTGCCTCGGAGTCACCTAGTGCAG", "binding signal": "8330 fluorescence intensity (a.u.)"}, {"sequence": "CTATATATATCATGCGTATGCCTTTTGCATTCCAAATCATCGGAGTCACCTAGTGCAG", "binding signal": "9330 fluorescence intensity (a.u.)"}, {"sequence": "CCTTTTTTGTTTGTTATGTTTTTTCCACGGTTTTTTTTCGCGGAGTCACCTAGTGCAG", "binding signal": "14100 fluorescence intensity (a.u.)"}, {"sequence": "AATCATGTACTTTGAGGTCCTTACGTGATATGTTTTTCTTCGGAGTCACCTAGTGCAG", "binding signal": "10500 fluorescence intensity (a.u.)"}, {"sequence": "CATTTCATCTTTTTCTTTATTCGAATGCATGTATCCTAGACGGAGTCACCTAGTGCAG", "binding signal": "9080 fluorescence intensity (a.u.)"}, {"sequence": "ACACTTACTCCTATCAAAGCAAGACCCTCACTTTGGCATCCGGAGTCACCTAGTGCAG", "binding signal": "9270 fluorescence intensity (a.u.)"}, {"sequence": "AGCATTCATATCACATCGGTTTTCGTACTTTTAGCCGGATCGGAGTCACCTAGTGCAG", "binding signal": "9460 fluorescence intensity (a.u.)"}, {"sequence": "ACCATCATTTTCATTGTTTGTGTTACTTTCCGGCGTCCTACGGAGTCACCTAGTGCAG", "binding signal": "9900 fluorescence intensity (a.u.)"}, {"sequence": "ATTTGAATATACCTTTTTTTTCTTAAGTTCAGTTCAATTCCGGAGTCACCTAGTGCAG", "binding signal": "8080 fluorescence intensity (a.u.)"}, {"sequence": "AAGTCCATAGCCCATTTTTATCGATCTGATTTCTAAAAAACGGAGTCACCTAGTGCAG", "binding signal": "9950 fluorescence intensity (a.u.)"}, {"sequence": "GACAAGGCCCCTCGCACCCCACAGGCCCATCCCATCCCACCGGAGTCACCTAGTGCAG", "binding signal": "8890 fluorescence intensity (a.u.)"}, {"sequence": "CGCCTGTAGTTTCCTACTTTCTCATGTCAATGTGTGCATGCGGAGTCACCTAGTGCAG", "binding signal": "10700 fluorescence intensity (a.u.)"}, {"sequence": "CTCCTCTCTCGCTCACTCCTCGCTCCTCTGTACTGTATCCCGGAGTCACCTAGTGCAG", "binding signal": "12700 fluorescence intensity (a.u.)"}, {"sequence": "GGTTTCCATTTCGGTACATCGATCTTTTTACAATTAGATCCGGAGTCACCTAGTGCAG", "binding signal": "9730 fluorescence intensity (a.u.)"}, {"sequence": "GATGTACTCCTCCGGCCACCACCAATCAAACCAGTCCACTCGGAGTCACCTAGTGCAG", "binding signal": "8320 fluorescence intensity (a.u.)"}, {"sequence": "GCCCACCGCAATTCATTCCTCATCCGTCTCGGTCTTGGAGCGGAGTCACCTAGTGCAG", "binding signal": "9230 fluorescence intensity (a.u.)"}, {"sequence": "CGCTATGTTTTGAGTGTGTATGTGGGTTGGAGGGAGGAGGCGGAGTCACCTAGTGCAG", "binding signal": "8330 fluorescence intensity (a.u.)"}, {"sequence": "GCAACGTGATCTCAGTTATTGCATGCTCTCCGTGCCGTATCGGAGTCACCTAGTGCAG", "binding signal": "8160 fluorescence intensity (a.u.)"}, {"sequence": "GTGTGGTTTGGTTTGGGAGGAGTTCGGTTTTTTCAGAATGCGGAGTCACCTAGTGCAG", "binding signal": "12200 fluorescence intensity (a.u.)"}, {"sequence": "ATTTTCTAAACCTCCTTATTCTCTCTCTAATTTTCTATTTCGGAGTCACCTAGTGCAG", "binding signal": "8450 fluorescence intensity (a.u.)"}, {"sequence": "AACCAATTCCATAACCCCTAGGCTATTTTGCGAGACAAATCGGAGTCACCTAGTGCAG", "binding signal": "9340 fluorescence intensity (a.u.)"}, {"sequence": "CCTATGCCCCAGTATCAGTACACATTCCTACCTCAATGATCGGAGTCACCTAGTGCAG", "binding signal": "8740 fluorescence intensity (a.u.)"}, {"sequence": "CTGCCACCACCGTCGCCGCGGCTTACACGTCTTCTTCGCCCGGAGTCACCTAGTGCAG", "binding signal": "9280 fluorescence intensity (a.u.)"}, {"sequence": "ATTTCGTTCTAGCTCTGTCCCTGTCCCTGGGCCCTGTATACGGAGTCACCTAGTGCAG", "binding signal": "8700 fluorescence intensity (a.u.)"}, {"sequence": "CATGTTCTGAAATCTGAAGGTCTTGTGTGTTTGTTCCGATCGGAGTCACCTAGTGCAG", "binding signal": "8760 fluorescence intensity (a.u.)"}, {"sequence": "ATCCGCTTACCACACTAAGTGCATGCACTCACAAATTTACCGGAGTCACCTAGTGCAG", "binding signal": "8500 fluorescence intensity (a.u.)"}, {"sequence": "CTCCATTATGGGCTTCTGTGGGCCTACTCCTCGATTCGTTCGGAGTCACCTAGTGCAG", "binding signal": "8500 fluorescence intensity (a.u.)"}, {"sequence": "CTGCTTTCTCGATTAGACCGTGTGTTTAGTGTGAAATTTTCGGAGTCACCTAGTGCAG", "binding signal": "8360 fluorescence intensity (a.u.)"}, {"sequence": "ATTTTGATTTTTGCAATCACCACCCCGCGCGGCGCAAACACGGAGTCACCTAGTGCAG", "binding signal": "8880 fluorescence intensity (a.u.)"}, {"sequence": "GGGCGACAAGCACGCGTATACCCATCTATCATCCCGCTCCCGGAGTCACCTAGTGCAG", "binding signal": "8390 fluorescence intensity (a.u.)"}, {"sequence": "ATCCAGCTCCGGCCTGTCTGTCCTGCTTGTATCCAAGTGTCGGAGTCACCTAGTGCAG", "binding signal": "9540 fluorescence intensity (a.u.)"}, {"sequence": "CCGCTCGCCGCCGGGACCCCGCACCGCAAATCGTCGTCCTCGGAGTCACCTAGTGCAG", "binding signal": "8480 fluorescence intensity (a.u.)"}, {"sequence": "GGGCTTGTTCAGATTGATGACATTTTCAACCATACCATATCGGAGTCACCTAGTGCAG", "binding signal": "9210 fluorescence intensity (a.u.)"}, {"sequence": "CGCGAGACAATCTAGCCGTTCTTCATTTTTTTCGCTTTCCCGGAGTCACCTAGTGCAG", "binding signal": "9240 fluorescence intensity (a.u.)"}, {"sequence": "GGCTTTCTCGTTTTAGTTGTCCATACTTCCTATTTCTATACGGAGTCACCTAGTGCAG", "binding signal": "13800 fluorescence intensity (a.u.)"}, {"sequence": "CTTTTTTGTATGCTGGTGTTTTTGGCTGGCCCTAAGTTTTCGGAGTCACCTAGTGCAG", "binding signal": "13400 fluorescence intensity (a.u.)"}, {"sequence": "TTCTATTTCACTAATTGTGTGTGTTCATTGCTAGTTGCATCGGAGTCACCTAGTGCAG", "binding signal": "8850 fluorescence intensity (a.u.)"}, {"sequence": "ACATTCCAAAATTTGACCAAATTTGTTCACTCGTTGACTGCGGAGTCACCTAGTGCAG", "binding signal": "13100 fluorescence intensity (a.u.)"}, {"sequence": "ACGCTCCACTCGCCTCGCTGCAGCAACCTCCTTCGCTCGACGGAGTCACCTAGTGCAG", "binding signal": "9520 fluorescence intensity (a.u.)"}, {"sequence": "GGGGCTCGTGATGGCGGTGTGGGTGCAATGCTTCTTTGGCCGGAGTCACCTAGTGCAG", "binding signal": "9940 fluorescence intensity (a.u.)"}, {"sequence": "TTTTAACTGTCATACTCACACATGTTCGATGAACTTTCGACGGAGTCACCTAGTGCAG", "binding signal": "8480 fluorescence intensity (a.u.)"}, {"sequence": "ACCTTTTATGGTGGGGTAGGAGTAGGTGACGGTGGAGATTCGGAGTCACCTAGTGCAG", "binding signal": "19000 fluorescence intensity (a.u.)"}, {"sequence": "TTCTTATGGTTTATATGGACTATTCTTGTCCTTAAGGTTTCGGAGTCACCTAGTGCAG", "binding signal": "8750 fluorescence intensity (a.u.)"}, {"sequence": "AAGCGCATATTGGGCCACTCTTTTTAACCATTGTTGCAACCGGAGTCACCTAGTGCAG", "binding signal": "8580 fluorescence intensity (a.u.)"}, {"sequence": "TCCCTTCAACCCCGTATGGCAAGTCCACCACTCCTTTCTTCGGAGTCACCTAGTGCAG", "binding signal": "8380 fluorescence intensity (a.u.)"}, {"sequence": "TGGTTTTGTATAGTTAATGGACCCCGTATATCTGGTTTTGCGGAGTCACCTAGTGCAG", "binding signal": "9610 fluorescence intensity (a.u.)"}, {"sequence": "GCCTCGCCTCATCTCCGTCACTTTCCATTTCGCCGCAGCGCGGAGTCACCTAGTGCAG", "binding signal": "9430 fluorescence intensity (a.u.)"}, {"sequence": "GCTCTGCCTTTTTCTTTATTTTTTCCTCACACGGTGCTTTCGGAGTCACCTAGTGCAG", "binding signal": "10400 fluorescence intensity (a.u.)"}, {"sequence": "ATACCCGACACCTCTGACGGCTCCAAGCTTGCAAGTCAACCGGAGTCACCTAGTGCAG", "binding signal": "8050 fluorescence intensity (a.u.)"}, {"sequence": "AACTTTTAAATTTTGACGTGAAGTAACCACACCCTTCATCCGGAGTCACCTAGTGCAG", "binding signal": "8380 fluorescence intensity (a.u.)"}, {"sequence": "GCCATCCCCGATCGATCCCCACCCGCAGCGGCGGCGAGGCCGGAGTCACCTAGTGCAG", "binding signal": "8140 fluorescence intensity (a.u.)"}]}]}
